Measured values published in publication PMC4076021 (ACS chemical biology, 2014).

Test system: H460 cells

O=C(CCCCCCC(=O)Nc1ccccc1)NO [SAHA]
combination effect on inhibition of H460 cell proliferation (in words): moderate antagonism
combination index (CI) (in combination with bizine, H460, 48 h, all ratios examined): > 1
